# Experimental data published in the supplement of paper PMC8728848.
# Some of the results follow.
# Experiments:
# Test in all cases: glycan array binding signal (z-score within array); higher = stronger binding
# Conditions in all cases: glycan notation: IUPAC condensed, linker removed
# [1] = target: Neu5Ac(a2-3)Gal(b1-4)GlcNAc(b1-3)Gal(b1-4)[Fuc(a1-3)]GlcNAc
# Summary of the method: (§1)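 Negative Z-scores can be read as non-binding. The Z-score is calculated within each array and then averaged across arrays of one protein sequence at different concentrations or buffers and across linkers. Arrays, 3228 in all, were curated from the Consortium for Functional Glycomics database and kept only where the protein sequence was available.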
# [2] = target: Neu5Ac(a2-3)Gal(b1-4)GlcNAc(b1-3)GalNAc
# Summary of the method: as §1
# [3] = target: Neu5Ac(a2-3)Gal(b1-4)GlcNAc(b1-3)[Neu5Ac(a2-3)Gal(b1-4)GlcNAc(b1-6)]GalNAc
# Summary of the method: as §1
# [4] = target: Neu5Ac(a2-3)Gal(b1-4)GlcNAc(b1-6)GalNAc
# Summary of the method: as §1
# [5] = target: Neu5Ac(a2-3)Gal(b1-4)GlcNAc(b1-6)[Gal(b1-3)]GalNAc
# Summary of the method: as §1
# [6] = target: Neu5Ac(a2-3)Gal(b1-4)GlcNAc(b1-6)[Neu5Ac(a2-3)Gal(b1-3)]GalNAc
# Summary of the method: as §1
# [7] = target: Neu5Ac(a2-3)Gal(b1-4)GlcNAc6S
# Summary of the method: as §1
# [8] = target: Neu5Ac(a2-3)Gal(b1-4)[Fuc(a1-3)]GlcNAc
# Summary of the method: as §1
# [9] = target: Neu5Ac(a2-3)Gal(b1-4)[Fuc(a1-3)]GlcNAc(b1-3)Gal
# Summary of the method: as §1
# [10] = target: Neu5Ac(a2-3)Gal(b1-4)[Fuc(a1-3)]GlcNAc(b1-3)Gal(b1-4)GlcNAc
# Summary of the method: as §1
# [11] = target: Neu5Ac(a2-3)Gal(b1-4)[Fuc(a1-3)]GlcNAc(b1-3)Gal(b1-4)[Fuc(a1-3)]GlcNAc(b1-3)Gal(b1-4)[Fuc(a1-3)]GlcNAc
# Summary of the method: as §1
# [12] = target: Neu5Ac(a2-3)Gal(b1-4)[Fuc(a1-3)]GlcNAc(b1-3)GalNAc
# Summary of the method: as §1
# [13] = target: Neu5Ac(a2-3)Gal(b1-4)[Fuc(a1-3)]GlcNAc(b1-6)[Gal(b1-3)]GalNAc
# Summary of the method: as §1
# [14] = target: Neu5Ac(a2-3)Gal(b1-4)[Fuc(a1-3)]GlcNAc6S
# Summary of the method: as §1
# [15] = target: Neu5Ac(a2-3)Gal6S(b1-4)GlcNAc
# Summary of the method: as §1
# [16] = target: Neu5Ac(a2-3)Gal6S(b1-4)[Fuc(a1-3)]GlcNAc
# Summary of the method: as §1
# Neu5Ac(a2-3)GalNAc = target: Neu5Ac(a2-3)GalNAc
# Summary of the method: as §1
# [17] = target: Neu5Ac(a2-3)GalNAc(b1-4)GlcNAc
# Summary of the method: as §1
# [18] = target: Neu5Ac(a2-3)[GalNAc(b1-4)]Gal(b1-4)Glc
# Summary of the method: as §1
# [19] = target: Neu5Ac(a2-3)[GalNAc(b1-4)]Gal(b1-4)GlcNAc
# Summary of the method: as §1
# [20] = target: Neu5Ac(a2-3)[GalNAc(b1-4)]Gal(b1-4)GlcNAc(b1-3)GalNAc
# Summary of the method: as §1
# [21] = target: Neu5Ac(a2-3)[Neu5Ac(a2-6)]GalNAc
# Summary of the method: as §1
# Neu5Ac(a2-6)Gal = target: Neu5Ac(a2-6)Gal
# Summary of the method: as §1
# [22] = target: Neu5Ac(a2-6)Gal(b1-3)GlcNAc(b1-3)[Gal(b1-4)GlcNAc(b1-6)]Gal(b1-4)Glc
# Summary of the method: as §1
# Neu5Ac(a2-6)Gal(b1-4)Glc = target: Neu5Ac(a2-6)Gal(b1-4)Glc
# Summary of the method: as §1
# [23] = target: Neu5Ac(a2-6)Gal(b1-4)GlcNAc
# Summary of the method: as §1
# [24] = target: Neu5Ac(a2-6)Gal(b1-4)GlcNAc(b1-2)Man(a1-3)Man(b1-4)GlcNAc(b1-4)GlcNAc
# Summary of the method: as §1
# [25] = target: Neu5Ac(a2-6)Gal(b1-4)GlcNAc(b1-2)Man(a1-3)[Gal(b1-4)GlcNAc(b1-2)Man(a1-6)]Man(b1-4)GlcNAc(b1-4)GlcNAc
# Summary of the method: as §1
# [26] = target: Neu5Ac(a2-6)Gal(b1-4)GlcNAc(b1-2)Man(a1-3)[GlcNAc(b1-2)Man(a1-6)]Man(b1-4)GlcNAc(b1-4)GlcNAc
# Summary of the method: as §1
# [27] = target: Neu5Ac(a2-6)Gal(b1-4)GlcNAc(b1-2)Man(a1-3)[GlcNAc(b1-2)Man(b1-4)GlcNAc(b1-2)Man(a1-6)]Man(b1-4)GlcNAc(b1-4)GlcNAc
# Summary of the method: as §1
# [28] = target: Neu5Ac(a2-6)Gal(b1-4)GlcNAc(b1-2)Man(a1-3)[Man(a1-6)]Man(b1-4)GlcNAc(b1-4)GlcNAc
# Summary of the method: as §1
# [29] = target: Neu5Ac(a2-6)Gal(b1-4)GlcNAc(b1-2)Man(a1-3)[Neu5Ac(a2-6)Gal(b1-4)GlcNAc(b1-2)Man(a1-6)]Man(b1-4)GlcNAc(b1-4)GlcNAc
# Summary of the method: as §1
# [30] = target: Neu5Ac(a2-6)Gal(b1-4)GlcNAc(b1-2)Man(a1-3)[Neu5Ac(a2-6)Gal(b1-4)GlcNAc(b1-2)Man(a1-6)]Man(b1-4)GlcNAc(b1-4)[Fuc(a1-6)]GlcNAc
# Summary of the method: as §1
# [31] = target: Neu5Ac(a2-6)Gal(b1-4)GlcNAc(b1-2)Man(a1-6)Man(b1-4)GlcNAc(b1-4)GlcNAc
# Summary of the method: as §1
# [32] = target: Neu5Ac(a2-6)Gal(b1-4)GlcNAc(b1-2)Man(a1-6)[Gal(b1-4)GlcNAc(b1-2)Man(a1-3)]Man(b1-4)GlcNAc(b1-4)GlcNAc
# Summary of the method: as §1
# [33] = target: Neu5Ac(a2-6)Gal(b1-4)GlcNAc(b1-2)Man(a1-6)[GlcNAc(b1-2)Man(a1-3)]Man(b1-4)GlcNAc(b1-4)GlcNAc
# Summary of the method: as §1
binder,measurement,setting,value
Intelectin-1a (Mus musculus) (protein) AEWSHPQFEKAEENLDTNRWGNSFFSSLPRSCKEIKQEHTKAQDGLYFLRTKNGVIYQTFCDMTTAGGGWTLVASVHENNMRGKCTVGDRWSSQQGNRADYPEGDGNWANYNTFGSAEAATSDDYKNPGYFDIQAENLGIWHVPNKSPLHNWRKSSLLRYRTFTGFLQHLGHNLFGLYKKYPVKYGEGKCWTDNGPALPVVYDFGDARKTASYYSPSGQREFTAGYVQFRVFNNERAASALCAGVRVTGCNTEHHCIGGGGFFPEGNPVQCGDFASFDWDGYGTHNGYSSSRKITEAAVLLFYR,glycan array binding signal (z-score),[1],-0.8
same,glycan array binding signal (z-score),[2],-0.154
same,glycan array binding signal (z-score),[3],0.295
same,glycan array binding signal (z-score),[4],-0.713
same,glycan array binding signal (z-score),[5],-0.75
same,glycan array binding signal (z-score),[6],-1.21
same,glycan array binding signal (z-score),[7],0.113
same,glycan array binding signal (z-score),[8],0.398
same,glycan array binding signal (z-score),[9],0.133
same,glycan array binding signal (z-score),[10],0.655
same,glycan array binding signal (z-score),[11],-0.102
same,glycan array binding signal (z-score),[12],6.37
same,glycan array binding signal (z-score),[13],1.57
same,glycan array binding signal (z-score),[14],0.199
same,glycan array binding signal (z-score),[15],-1.27
same,glycan array binding signal (z-score),[16],0.841
same,glycan array binding signal (z-score),Neu5Ac(a2-3)GalNAc,0.532
same,glycan array binding signal (z-score),[17],-0.222
same,glycan array binding signal (z-score),[18],-0.899
same,glycan array binding signal (z-score),[19],-0.776
same,glycan array binding signal (z-score),[20],1.04
same,glycan array binding signal (z-score),[21],0.19
same,glycan array binding signal (z-score),Neu5Ac(a2-6)Gal,0.413
same,glycan array binding signal (z-score),[22],-0.689
same,glycan array binding signal (z-score),Neu5Ac(a2-6)Gal(b1-4)Glc,0.917
same,glycan array binding signal (z-score),[23],-0.441
same,glycan array binding signal (z-score),[24],0.578
same,glycan array binding signal (z-score),[25],-1.07
same,glycan array binding signal (z-score),[26],-0.169
same,glycan array binding signal (z-score),[27],1.06
same,glycan array binding signal (z-score),[28],3.98
same,glycan array binding signal (z-score),[29],-0.048
same,glycan array binding signal (z-score),[30],2.24
same,glycan array binding signal (z-score),[31],-0.293
same,glycan array binding signal (z-score),[32],-0.073
same,glycan array binding signal (z-score),[33],-0.501
